# PubChem BioAssay AID493014 (National Center for Advancing Translational Sciences (NCATS), 2011)
# Screen size: about 340,000 compounds; about 170 (0.05%) were called active. Inconclusive results, whose numbers are uncertain, are shown with a selection of clear calls. The call rests on the fitted dose curve; in most records, active means well fitted inhibition curve with a large enough effect in the signal ratio, with a control signal flat (not every such curve was filed as active); inconclusive means small, poorly fitted or top-dose-only effect, or effect the other way, or a change in a side signal; inactive means flat fitted curve, though single readings scatter; the % refers to the signal ratio. Where the call is inconclusive, the potency comes from a doubtful curve fit.
# Assay: qHTS Assay to Find Inhibitors of Chronic Active B-Cell Receptor Signaling;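 on activity change, negative = inhibition: plate controls were basal doxycycline-induced cells for no effect and cells given 10 µM MG132 for full effect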
# Conditions: ABC-DLBCL IkBa-CBG/CBR reporter, luminescence ratio (green luciferase fused to IkBa over red control in TMD8 lymphoma cells), 4 h; activity change, negative = inhibition: at 46.1 µM (top of the series)
# Outline: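 Doxycycline induced both beetle luciferases in TMD8 lymphoma cells; IKK-driven degradation limits the IkappaBalpha-fused green signal, while red luminescence normalises for cell number and nonspecific effects. Compounds tested up to 46 uM, 4 hrs.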
# Potency means the concentration at half of the fitted maximal effect.
SMILES,"activity change, negative = inhibition",Potency
C=C(C)CSc1nnc(-c2cccc(Cl)c2)n1N,inactive,–
CCOC(=O)c1ccc(N2C(=O)CC(N3CCN(C(=O)c4ccccc4)CC3)C2=O)cc1 (configuration not stated),inconclusive: 1.85%,–
O=C(CCN1C(=O)/C(=C/c2ccc3c(c2)OCO3)SC1=S)Nc1ccccc1,–,"inconclusive: 4.61 µM [falling, single point]"
CCN(C(=O)COC(=O)c1cc([N+](=O)[O-])ccc1N1CCOCC1)C1CCCCC1,inconclusive: -0.825%,–
O=C(O)C1=CCCN(CCON=C(c2ccccc2)c2ccccc2)C1,–,"inconclusive: 20.6 µM [falling, partial curve, poor fit]"
O=c1[nH]c(CCl)nc2cc(-c3ccc(Cl)cc3)sc12,–,"inconclusive: 16.4 µM [falling, partial curve]"
COc1ccc(C(=O)CN2C(=O)c3ccccc3S2(=O)=O)cc1,–,"inconclusive: 20 µM [falling, partial curve, poor fit]"
Cc1nc(SCc2ccc(Br)cc2)[nH]c(=O)c1C,inconclusive: -2.44%,–
CCN1C(=O)C(CC(=O)Nc2ccc(OC)cc2)N(Cc2ccco2)C1=S (configuration not stated),inconclusive: 6.45%,–
O=C(Nc1cc(SCCO)cc([N+](=O)[O-])c1)c1ccco1,inconclusive: 0.664%,–
O=C(CSc1nc(-c2ccccc2)c(-c2ccccc2)o1)Nc1nncs1,inconclusive: 13.9%,–
CN(C)S(=O)(=O)c1ccc(NC(=O)COC(=O)c2n[nH]c3ccccc23)cc1,inconclusive: -1.46%,–
CC(C)(CO)NCc1c(OCc2ccc(Cl)cc2)ccc2ccccc12,inconclusive: -8.7%,–
Cc1nc2ccccc2c(=O)n1/N=C/c1ccc(N(C)C)cc1,inactive,–
CC(C)(C)c1ccc(/C=N/Nc2cccc(C(=O)O)c2)cc1,–,"inconclusive: 11.2 µM [falling, partial curve, poor fit]"
O=C(NCCCN1CCOCC1)C(=O)N/N=C/c1ccccc1Cl,inconclusive: 19.8%,–
N#Cc1ccc(CC(C(=O)O)N2Cc3ccccc3C2=O)cc1 (configuration not stated),inconclusive: 1.83%,–
O=c1oc2ccc3ccccc3c2cc1-c1nnc(-c2ccccc2)o1,–,"inconclusive: 22.4 µM [falling, single point]"
Cc1nn(-c2ccccc2)c(Cl)c1/C=N/Nc1nc2ccccc2[nH]1,inconclusive: 6.13%,–
COc1cc2ccccc2cc1C(=O)NC1CCCC1,inconclusive: 1.17%,–
COc1ccc(Br)cc1/C=C/C(=O)NC(=S)Nc1ccc(CN2CCOCC2)cc1,inconclusive: -1.71%,–
N#Cc1sc(C(N)=O)c(-c2ccccc2)c1-c1ccccc1,inactive,–

# Look-ups from the entries so far.
# For activity change, negative = inhibition, CCOC(=O)c1ccc(N2C(=O)CC(N3CCN(C(=O)c4ccccc4)CC3)C2=O)cc1 (configuration not stated) has the entry inconclusive: 1.85%
# For activity change, negative = inhibition, C=C(C)CSc1nnc(-c2cccc(Cl)c2)n1N has the entry inactive
